Experimental data from the supplement of paper PMC10849652.
The other results are listed elsewhere or left out.

Amino acid sequences for entries named in this document (tags omitted). A change or cut given only in a name is not applied to a line headed by its entry.
UniProt O14818: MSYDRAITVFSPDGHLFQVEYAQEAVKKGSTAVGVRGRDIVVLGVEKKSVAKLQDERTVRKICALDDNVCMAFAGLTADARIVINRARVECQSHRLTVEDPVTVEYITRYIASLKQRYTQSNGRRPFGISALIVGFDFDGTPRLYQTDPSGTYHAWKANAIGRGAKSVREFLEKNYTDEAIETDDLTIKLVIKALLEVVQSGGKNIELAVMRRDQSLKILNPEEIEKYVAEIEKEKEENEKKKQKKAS
UniProt Q13308: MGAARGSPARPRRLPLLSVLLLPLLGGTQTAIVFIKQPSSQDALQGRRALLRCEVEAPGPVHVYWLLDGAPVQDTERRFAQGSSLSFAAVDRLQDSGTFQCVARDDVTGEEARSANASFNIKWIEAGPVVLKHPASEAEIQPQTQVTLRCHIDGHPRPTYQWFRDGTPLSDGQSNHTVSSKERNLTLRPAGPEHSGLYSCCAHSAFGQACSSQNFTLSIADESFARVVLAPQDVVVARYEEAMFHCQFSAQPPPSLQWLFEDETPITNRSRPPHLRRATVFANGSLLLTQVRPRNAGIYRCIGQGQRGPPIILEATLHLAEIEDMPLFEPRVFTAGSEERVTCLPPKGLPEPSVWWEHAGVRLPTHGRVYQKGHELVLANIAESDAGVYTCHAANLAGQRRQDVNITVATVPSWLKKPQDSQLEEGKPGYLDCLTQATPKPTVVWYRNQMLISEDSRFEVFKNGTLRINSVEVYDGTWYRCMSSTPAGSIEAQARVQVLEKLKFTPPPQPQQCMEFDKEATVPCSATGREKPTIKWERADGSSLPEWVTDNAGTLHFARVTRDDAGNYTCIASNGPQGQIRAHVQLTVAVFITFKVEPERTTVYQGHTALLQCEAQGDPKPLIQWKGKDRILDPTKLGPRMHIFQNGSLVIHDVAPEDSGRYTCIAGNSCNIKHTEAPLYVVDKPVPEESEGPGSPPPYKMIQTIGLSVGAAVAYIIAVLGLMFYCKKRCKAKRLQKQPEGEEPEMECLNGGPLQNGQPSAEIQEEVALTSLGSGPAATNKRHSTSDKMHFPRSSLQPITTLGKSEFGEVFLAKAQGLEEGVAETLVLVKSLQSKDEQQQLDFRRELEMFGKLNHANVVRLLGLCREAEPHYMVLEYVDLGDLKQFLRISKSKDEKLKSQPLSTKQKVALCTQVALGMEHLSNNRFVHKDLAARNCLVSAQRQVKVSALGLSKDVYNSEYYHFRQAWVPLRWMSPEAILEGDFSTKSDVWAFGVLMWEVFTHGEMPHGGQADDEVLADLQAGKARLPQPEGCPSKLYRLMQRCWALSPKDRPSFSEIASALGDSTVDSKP
UniProt Q8WUK0: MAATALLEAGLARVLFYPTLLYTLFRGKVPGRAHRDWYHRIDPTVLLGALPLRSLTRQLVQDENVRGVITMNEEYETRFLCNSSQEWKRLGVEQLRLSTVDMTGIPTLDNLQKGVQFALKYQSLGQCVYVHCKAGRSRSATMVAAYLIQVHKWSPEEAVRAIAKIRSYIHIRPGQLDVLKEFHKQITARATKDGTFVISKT
UniProt P62333, whole entry, looked up: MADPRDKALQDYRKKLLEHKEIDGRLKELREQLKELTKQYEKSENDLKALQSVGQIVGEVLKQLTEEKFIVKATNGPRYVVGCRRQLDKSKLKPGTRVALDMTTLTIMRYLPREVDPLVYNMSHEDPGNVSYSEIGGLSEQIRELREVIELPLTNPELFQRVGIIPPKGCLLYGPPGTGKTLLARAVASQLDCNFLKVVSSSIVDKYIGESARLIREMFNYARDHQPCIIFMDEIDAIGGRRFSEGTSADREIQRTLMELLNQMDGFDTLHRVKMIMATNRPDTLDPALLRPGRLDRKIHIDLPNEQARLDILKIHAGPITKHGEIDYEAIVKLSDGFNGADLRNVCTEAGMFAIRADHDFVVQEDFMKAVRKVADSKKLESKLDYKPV
UniProt P23219, whole entry, looked up: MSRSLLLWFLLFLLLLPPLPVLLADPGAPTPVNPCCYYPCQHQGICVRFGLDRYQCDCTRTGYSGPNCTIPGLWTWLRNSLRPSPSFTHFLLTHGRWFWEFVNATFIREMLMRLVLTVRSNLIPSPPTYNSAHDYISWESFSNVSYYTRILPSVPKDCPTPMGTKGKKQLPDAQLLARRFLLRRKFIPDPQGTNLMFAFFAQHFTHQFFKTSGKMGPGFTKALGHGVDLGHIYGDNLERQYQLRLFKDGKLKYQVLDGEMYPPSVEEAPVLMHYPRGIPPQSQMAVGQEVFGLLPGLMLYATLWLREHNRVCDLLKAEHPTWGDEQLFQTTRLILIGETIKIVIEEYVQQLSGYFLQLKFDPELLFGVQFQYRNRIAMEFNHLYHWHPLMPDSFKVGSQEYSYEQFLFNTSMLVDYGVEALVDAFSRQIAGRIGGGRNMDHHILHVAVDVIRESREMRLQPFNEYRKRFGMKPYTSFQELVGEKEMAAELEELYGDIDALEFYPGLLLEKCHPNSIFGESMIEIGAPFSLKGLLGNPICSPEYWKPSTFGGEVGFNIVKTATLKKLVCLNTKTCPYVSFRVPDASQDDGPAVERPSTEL
UniProt Q9UL46, whole entry, looked up: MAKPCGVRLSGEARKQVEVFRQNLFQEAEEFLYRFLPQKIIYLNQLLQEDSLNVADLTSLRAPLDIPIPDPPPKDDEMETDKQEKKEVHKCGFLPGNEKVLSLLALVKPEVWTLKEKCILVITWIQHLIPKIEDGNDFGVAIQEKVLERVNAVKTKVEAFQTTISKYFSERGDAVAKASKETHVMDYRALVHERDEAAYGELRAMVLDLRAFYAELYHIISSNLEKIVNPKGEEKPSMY
UniProt P20618: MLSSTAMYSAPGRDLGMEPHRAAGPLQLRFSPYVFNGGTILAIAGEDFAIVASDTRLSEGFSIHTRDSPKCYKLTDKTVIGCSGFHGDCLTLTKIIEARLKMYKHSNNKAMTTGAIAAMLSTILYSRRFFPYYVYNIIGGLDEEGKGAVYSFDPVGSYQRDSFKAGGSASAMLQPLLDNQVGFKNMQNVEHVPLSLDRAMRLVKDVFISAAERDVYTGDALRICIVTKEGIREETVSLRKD
UniProt O00232: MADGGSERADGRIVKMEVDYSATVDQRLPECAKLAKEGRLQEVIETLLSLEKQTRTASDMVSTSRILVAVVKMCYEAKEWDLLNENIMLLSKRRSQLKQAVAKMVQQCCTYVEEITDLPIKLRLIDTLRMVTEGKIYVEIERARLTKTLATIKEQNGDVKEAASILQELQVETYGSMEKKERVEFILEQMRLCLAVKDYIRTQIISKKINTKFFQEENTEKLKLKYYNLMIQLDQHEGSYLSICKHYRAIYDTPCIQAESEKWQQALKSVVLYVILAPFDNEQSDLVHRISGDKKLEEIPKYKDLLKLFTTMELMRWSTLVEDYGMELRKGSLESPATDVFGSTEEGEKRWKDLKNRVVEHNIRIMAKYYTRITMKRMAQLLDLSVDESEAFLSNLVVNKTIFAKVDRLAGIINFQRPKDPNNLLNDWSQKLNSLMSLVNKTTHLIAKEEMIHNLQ
UniProt P08575: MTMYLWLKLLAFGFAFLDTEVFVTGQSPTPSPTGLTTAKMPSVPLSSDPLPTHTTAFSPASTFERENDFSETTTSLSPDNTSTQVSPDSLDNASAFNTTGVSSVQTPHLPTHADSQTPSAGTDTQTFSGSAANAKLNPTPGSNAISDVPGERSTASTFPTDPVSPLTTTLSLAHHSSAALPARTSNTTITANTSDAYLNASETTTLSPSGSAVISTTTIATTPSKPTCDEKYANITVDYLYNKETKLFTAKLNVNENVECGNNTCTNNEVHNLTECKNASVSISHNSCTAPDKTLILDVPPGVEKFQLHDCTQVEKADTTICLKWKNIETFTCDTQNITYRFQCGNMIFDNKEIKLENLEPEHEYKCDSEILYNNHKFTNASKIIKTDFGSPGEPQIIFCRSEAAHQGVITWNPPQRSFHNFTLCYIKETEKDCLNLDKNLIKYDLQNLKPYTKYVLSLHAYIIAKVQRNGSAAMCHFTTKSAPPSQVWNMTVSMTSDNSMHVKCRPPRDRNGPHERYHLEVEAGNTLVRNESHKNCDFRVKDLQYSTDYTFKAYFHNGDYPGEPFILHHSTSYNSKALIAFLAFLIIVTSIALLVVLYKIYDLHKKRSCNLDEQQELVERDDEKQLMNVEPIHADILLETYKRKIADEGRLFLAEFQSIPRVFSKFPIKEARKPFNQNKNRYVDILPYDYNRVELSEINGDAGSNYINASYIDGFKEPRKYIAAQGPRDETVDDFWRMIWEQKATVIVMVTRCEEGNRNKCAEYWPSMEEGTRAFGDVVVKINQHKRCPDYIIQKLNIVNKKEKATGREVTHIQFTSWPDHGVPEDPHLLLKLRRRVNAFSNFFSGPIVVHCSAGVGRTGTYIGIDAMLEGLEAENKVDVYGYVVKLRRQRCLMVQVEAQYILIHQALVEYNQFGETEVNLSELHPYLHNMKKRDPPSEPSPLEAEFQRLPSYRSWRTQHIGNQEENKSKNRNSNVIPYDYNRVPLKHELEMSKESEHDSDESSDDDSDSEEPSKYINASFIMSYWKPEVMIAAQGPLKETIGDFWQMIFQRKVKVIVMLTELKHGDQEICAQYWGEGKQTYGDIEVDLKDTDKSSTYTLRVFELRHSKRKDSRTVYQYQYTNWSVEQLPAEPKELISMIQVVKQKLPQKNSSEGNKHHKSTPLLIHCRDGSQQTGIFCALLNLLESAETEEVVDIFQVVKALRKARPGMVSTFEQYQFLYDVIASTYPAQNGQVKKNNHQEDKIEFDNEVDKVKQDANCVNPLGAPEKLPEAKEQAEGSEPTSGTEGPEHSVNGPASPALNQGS
UniProt P18433: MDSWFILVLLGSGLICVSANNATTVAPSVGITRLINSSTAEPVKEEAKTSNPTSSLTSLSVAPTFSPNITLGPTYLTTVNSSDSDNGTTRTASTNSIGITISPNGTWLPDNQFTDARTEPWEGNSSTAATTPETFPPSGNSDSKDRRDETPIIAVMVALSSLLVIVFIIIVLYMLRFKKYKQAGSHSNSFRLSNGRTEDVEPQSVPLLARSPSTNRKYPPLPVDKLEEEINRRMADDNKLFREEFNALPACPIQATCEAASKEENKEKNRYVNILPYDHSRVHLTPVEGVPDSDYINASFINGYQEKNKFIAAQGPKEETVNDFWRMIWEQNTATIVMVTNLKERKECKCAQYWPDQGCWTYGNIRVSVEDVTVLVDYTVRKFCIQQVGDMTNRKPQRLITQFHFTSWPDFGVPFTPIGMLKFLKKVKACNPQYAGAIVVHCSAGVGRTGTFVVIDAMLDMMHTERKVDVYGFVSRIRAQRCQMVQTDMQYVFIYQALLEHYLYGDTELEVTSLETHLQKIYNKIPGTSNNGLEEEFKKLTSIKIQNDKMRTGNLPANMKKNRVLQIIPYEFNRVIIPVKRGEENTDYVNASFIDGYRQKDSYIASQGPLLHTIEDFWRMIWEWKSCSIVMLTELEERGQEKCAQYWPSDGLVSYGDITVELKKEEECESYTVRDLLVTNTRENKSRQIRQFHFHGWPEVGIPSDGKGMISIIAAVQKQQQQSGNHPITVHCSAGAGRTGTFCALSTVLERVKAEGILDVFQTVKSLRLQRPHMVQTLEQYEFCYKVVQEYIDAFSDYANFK
UniProt Q9ULZ3, whole entry, looked up: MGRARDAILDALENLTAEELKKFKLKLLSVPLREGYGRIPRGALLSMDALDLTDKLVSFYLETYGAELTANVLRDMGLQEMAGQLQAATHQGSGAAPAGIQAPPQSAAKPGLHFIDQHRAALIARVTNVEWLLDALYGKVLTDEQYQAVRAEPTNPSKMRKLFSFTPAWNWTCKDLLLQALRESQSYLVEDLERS
UniProt P49720: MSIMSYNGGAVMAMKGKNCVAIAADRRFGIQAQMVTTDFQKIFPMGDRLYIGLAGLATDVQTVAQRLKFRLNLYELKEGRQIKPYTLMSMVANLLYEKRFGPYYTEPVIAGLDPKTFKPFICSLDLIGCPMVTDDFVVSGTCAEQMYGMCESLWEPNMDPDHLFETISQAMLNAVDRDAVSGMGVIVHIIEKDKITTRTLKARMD
UniProt Q5JS54: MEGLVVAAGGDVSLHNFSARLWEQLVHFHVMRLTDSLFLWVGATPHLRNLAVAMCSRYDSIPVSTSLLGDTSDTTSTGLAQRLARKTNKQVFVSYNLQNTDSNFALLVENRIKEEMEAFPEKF
UniProt P18031: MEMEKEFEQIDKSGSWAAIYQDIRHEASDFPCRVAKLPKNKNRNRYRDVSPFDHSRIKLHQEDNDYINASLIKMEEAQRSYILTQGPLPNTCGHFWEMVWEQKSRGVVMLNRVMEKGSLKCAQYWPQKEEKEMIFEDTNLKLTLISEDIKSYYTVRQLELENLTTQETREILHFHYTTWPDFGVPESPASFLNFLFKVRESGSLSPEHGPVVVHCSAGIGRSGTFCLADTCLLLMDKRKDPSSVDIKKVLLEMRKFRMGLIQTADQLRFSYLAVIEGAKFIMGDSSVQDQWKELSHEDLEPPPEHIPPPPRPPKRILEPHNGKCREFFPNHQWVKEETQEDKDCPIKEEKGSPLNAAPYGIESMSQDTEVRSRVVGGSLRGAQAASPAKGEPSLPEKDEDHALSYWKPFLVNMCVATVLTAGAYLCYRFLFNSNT

Tests used:
Test in all cases: log2 fold change, soluble protein after heating vs DMSO (PISA); higher = thermal stabilisation; K562 cells, 10 uM, 30 min; active = over 0.2 and 3.5 SD of the protein, either way, in both replicates (recomputed)
[1] = compound: NC(=O)Nc1cc(-c2cccc(F)c2)sc1C(=O)N[C@H]1CCCNC1
How it was run: (§1)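 Quantification of soluble protein used TMTpro 16plex LC-MS/MS, with channel sums equalised. Samples were the supernatant after 21,000xg for 90 min of pooled aliquots from K562 cells (2×10^6 cells/mL) treated with 10 μM compound for 30 min, heated for 3 min over 48°C-58°C, and extracted in PBS with 0.5% NP-40 at 4°C. Values, from duplicates, describe thermal stability against control samples on a log2 fold-change scale.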

[2] = compound: NC(=O)c1cnc(N[C@@H]2CCCC[C@@H]2N)nc1Nc1cccc(-n2nccn2)c1
How it was run: as §1

[3] = compound: NC1(c2ccc(-c3nc4ccn5c(=O)[nH]nc5c4cc3-c3ccccc3)cc2)CCC1
How it was run: as §1

[4] = compound: NCC(=O)Nc1ccc(-n2nc(C(F)(F)F)cc2-c2ccc3c(ccc4ccccc43)c2)cc1
How it was run: as §1

[5] = compound: Nc1ccccc1NC(=O)c1ccc(CNC(=O)OCc2cccnc2)cc1 [entinostat]
How it was run: as §1

[6] = compound: O=C(CCCCCCC(=O)Nc1ccccc1)NO [vorinostat]
How it was run: as §1

[7] = compound: O=C(CCCCCCNC(=O)c1cnc(N(c2ccccc2)c2ccccc2Cl)nc1)NO [citarinostat]
How it was run: as §1

[8] = compound: O=C(O)c1ccc2c(c1)nc(Nc1cccc(Cl)c1)c1ccncc12 [silmitasertib]
How it was run: as §1

[9] = compound: O=C1NC(=O)C(c2cnc3ccccn23)=C1c1cn2c3c(cc(F)cc13)CN(C(=O)N1CCCCC1)CC2
How it was run: as §1

[10] = compound: c1cc(OCCN2CCCCC2)cc(-c2n[nH]c3ccc(-c4nnc[nH]4)cc23)c1
How it was run: as §1

| Target | log2 fold change [1] | log2 fold change [2] | log2 fold change [3] | log2 fold change [4] | log2 fold change [5] | log2 fold change [6] | log2 fold change [7] | log2 fold change [8] | log2 fold change [9] | log2 fold change [10] |
| --- | --- | --- | --- | --- | --- | --- | --- | --- | --- | --- |
| PSMA7 (UniProt O14818) | inactive: 0.002 | inactive: 0.065 | inactive: 0.009 | inactive: 0.052 | inactive: -0.058 | inactive: -0.013 | inactive: -0.009 | inactive: -0.001 | inactive: 0.068 | inactive: -0.026 |
| PSMD13 (UniProt Q9UNM6) | inactive: -0.049 | inactive: 0.015 | inactive: -0.044 | inactive: 0.006 | inactive: -0.018 | inactive: 0.001 | inactive: -0.017 | inactive: 0.033 | inactive: 0.044 | inactive: -0.108 |
| PTK7 isoform 6 (UniProt Q13308) | inactive: -0.093 | inactive: 0.057 | inactive: -0.162 | inactive: 0.041 | inactive: 0.012 | inactive: -0.07 | inactive: -0.046 | inactive: 0.134 | inactive: -0.137 | inactive: 0.018 |
| PTPMT1 (UniProt Q8WUK0) | inactive: -0.087 | inactive: -0.264 | inactive: -0.263 | inactive: -0.166 | inactive: 0.073 | inactive: 0.049 | inactive: 0.014 | inactive: 0.032 | inactive: -0.015 | inactive: -0.082 |
| PYCR3 (UniProt Q53H96) | inactive: 0.052 | inactive: -0.005 | inactive: 0.015 | inactive: 0.02 | inactive: 0.011 | inactive: 0.022 | inactive: 0.026 | inactive: -0.002 | inactive: 0.08 | inactive: 0.046 |
| PSMD9 (UniProt O00233) | inactive: 0.041 | inactive: 0.017 | inactive: 0.022 | inactive: 0.072 | inactive: 0.017 | inactive: 0.086 | inactive: 0.029 | inactive: -0.013 | inactive: -0.027 | inactive: 0.005 |
| PSMC6 (UniProt P62333) | inactive: 0.007 | inactive: 0.015 | inactive: 0.069 | inactive: 0.075 | inactive: -0.015 | inactive: -0.005 | inactive: -0.048 | inactive: -0.035 | inactive: 0.072 | inactive: -0.075 |
| PXK (UniProt Q7Z7A4) | inactive: -0.057 | inactive: -0.044 | active: -0.279 | inactive: -0.073 | inactive: 0.014 | inactive: 0.018 | inactive: 0.021 | inactive: -0.002 | inactive: -0.043 | inactive: 0.008 |
| PTGS1 isoform 6 (UniProt P23219) | inactive: 0.002 | inactive: -0.043 | inactive: 0.012 | inactive: -0.013 | inactive: -0.01 | inactive: -0.035 | inactive: 0.033 | inactive: 0.028 | inactive: -0.066 | inactive: -0.084 |
| PWP1 (UniProt Q13610) | inactive: 0.131 | inactive: 0.113 | inactive: 0.367 | inactive: 0.18 | inactive: -0.066 | inactive: -0.097 | inactive: -0.186 | inactive: 0.216 | inactive: 0.253 | inactive: -0.238 |
| PSMD7 (UniProt P51665) | inactive: -0.04 | inactive: 0.001 | inactive: -0.035 | inactive: 0.029 | inactive: -0.049 | inactive: -0.002 | inactive: -0.048 | inactive: 0.016 | inactive: 0.051 | inactive: -0.089 |
| PSME2 (UniProt Q9UL46) | inactive: -0.062 | inactive: -0.021 | inactive: -0.067 | inactive: -0.023 | inactive: -0.008 | inactive: 0.023 | inactive: 0.016 | inactive: 0.023 | inactive: 0.007 | inactive: -0.048 |
| PSMB1 (UniProt P20618) | inactive: 0.029 | inactive: 0.055 | inactive: 0.045 | inactive: 0.084 | inactive: -0.066 | inactive: 0.035 | inactive: 0 | inactive: 0 | inactive: 0.054 | inactive: -0.027 |
| PSMD12 (UniProt O00232) | inactive: -0.001 | inactive: 0.019 | inactive: -0.061 | inactive: 0.05 | inactive: 0.001 | inactive: 0.003 | inactive: -0.012 | inactive: -0.024 | inactive: 0.045 | inactive: -0.09 |
| QPCTL (UniProt Q9NXS2) | inactive: 0 | inactive: 0.061 | inactive: 0.062 | inactive: -0.033 | inactive: -0.019 | inactive: 0.021 | inactive: 0.007 | inactive: -0.017 | inactive: 0.112 | inactive: -0.052 |
| PTPRC (UniProt P08575) | inactive: -0.136 | inactive: 0.051 | inactive: 0.023 | inactive: 0.005 | inactive: -0.063 | inactive: -0.045 | inactive: 0.015 | inactive: -0.015 | inactive: -0.033 | inactive: -0.053 |
| PTPRA (UniProt P18433) | inactive: -0.172 | inactive: -0.009 | inactive: -0.001 | inactive: 0.026 | inactive: -0.04 | inactive: 0.028 | inactive: 0.062 | inactive: 0.008 | inactive: -0.018 | inactive: -0.039 |
| PTK2 (UniProt Q05397) | inactive: 0.154 | inactive: -0.012 | inactive: -0.061 | inactive: -0.012 | inactive: -0.012 | inactive: 0 | inactive: -0.007 | inactive: -0.02 | inactive: 0.004 | inactive: -0.02 |
| PYCARD (UniProt Q9ULZ3) | inactive: -0.004 | inactive: 0.014 | inactive: -0.022 | inactive: -0.001 | inactive: 0.02 | inactive: -0.058 | inactive: 0.035 | inactive: 0.013 | inactive: -0.086 | inactive: -0.063 |
| PYM1 (UniProt Q9BRP8) | inactive: -0.008 | inactive: 0.054 | inactive: 0.129 | inactive: 0.016 | inactive: -0.042 | inactive: -0.03 | inactive: -0.053 | inactive: 0.043 | inactive: 0.063 | inactive: -0.107 |
| PXN (UniProt P49023) | inactive: 0.009 | inactive: 0.007 | inactive: 0.028 | inactive: 0.087 | inactive: -0.002 | inactive: -0.008 | inactive: 0.029 | inactive: -0.036 | inactive: 0 | inactive: 0.011 |
| PVR (UniProt P15151) | inactive: -0.047 | inactive: 0.116 | inactive: 0.002 | inactive: 0.134 | inactive: -0.019 | inactive: -0.001 | inactive: 0.018 | inactive: -0.055 | inactive: -0.053 | inactive: -0.073 |
| PSMB3 (UniProt P49720) | inactive: 0.046 | inactive: 0.058 | inactive: -0.014 | inactive: 0.067 | inactive: -0.056 | inactive: -0.045 | inactive: 0 | inactive: 0.033 | inactive: 0.055 | inactive: -0.076 |
| PTGR2 (UniProt Q8N8N7) | inactive: -0.039 | inactive: -0.077 | inactive: 0.123 | inactive: -0.164 | inactive: -0.05 | inactive: -0.149 | inactive: 0.009 | inactive: -0.011 | active: 0.611 | inactive: 0.231 |
| PSMG2 (UniProt Q969U7) | inactive: 0.011 | inactive: -0.039 | inactive: -0.045 | inactive: 0.002 | inactive: 0 | inactive: -0.009 | inactive: 0.027 | inactive: -0.011 | inactive: -0.031 | inactive: -0.001 |
| PSMG4 isoform 2 (UniProt Q5JS54) | inactive: 0.457 | inactive: 0.037 | inactive: 0.079 | inactive: 0.085 | inactive: 0.225 | inactive: 0.058 | inactive: -0.079 | inactive: -0.144 | inactive: 0.064 | inactive: 0.003 |
| PTPN1 (UniProt P18031) | inactive: -0.075 | inactive: -0.029 | inactive: -0.03 | inactive: -0.052 | inactive: 0.018 | inactive: 0.088 | inactive: 0.087 | inactive: 0.126 | inactive: 0.026 | inactive: -0.05 |

2 entries picked at random from the list so far:

| Target | log2 fold change [1] | log2 fold change [2] | log2 fold change [3] | log2 fold change [4] | log2 fold change [5] | log2 fold change [6] | log2 fold change [7] | log2 fold change [8] | log2 fold change [9] | log2 fold change [10] |
| --- | --- | --- | --- | --- | --- | --- | --- | --- | --- | --- |
| PTPRC (UniProt P08575) | inactive: -0.136 | inactive: 0.051 | inactive: 0.023 | inactive: 0.005 | inactive: -0.063 | inactive: -0.045 | inactive: 0.015 | inactive: -0.015 | inactive: -0.033 | inactive: -0.053 |
| PTK7 isoform 6 (UniProt Q13308) | inactive: -0.093 | inactive: 0.057 | inactive: -0.162 | inactive: 0.041 | inactive: 0.012 | inactive: -0.07 | inactive: -0.046 | inactive: 0.134 | inactive: -0.137 | inactive: 0.018 |
